From paper doi:10.1101/2025.03.30.646247 come the findings set out here.

Sequences of proteins named here, by UniProt entry; tags and fusion partners are left off. A change or cut given only in a name is not applied to a line headed by its entry. A line that says so, or that is headed by a name, gives the form on record, which may keep a tag or linker.
UniProt Q9FIJ0: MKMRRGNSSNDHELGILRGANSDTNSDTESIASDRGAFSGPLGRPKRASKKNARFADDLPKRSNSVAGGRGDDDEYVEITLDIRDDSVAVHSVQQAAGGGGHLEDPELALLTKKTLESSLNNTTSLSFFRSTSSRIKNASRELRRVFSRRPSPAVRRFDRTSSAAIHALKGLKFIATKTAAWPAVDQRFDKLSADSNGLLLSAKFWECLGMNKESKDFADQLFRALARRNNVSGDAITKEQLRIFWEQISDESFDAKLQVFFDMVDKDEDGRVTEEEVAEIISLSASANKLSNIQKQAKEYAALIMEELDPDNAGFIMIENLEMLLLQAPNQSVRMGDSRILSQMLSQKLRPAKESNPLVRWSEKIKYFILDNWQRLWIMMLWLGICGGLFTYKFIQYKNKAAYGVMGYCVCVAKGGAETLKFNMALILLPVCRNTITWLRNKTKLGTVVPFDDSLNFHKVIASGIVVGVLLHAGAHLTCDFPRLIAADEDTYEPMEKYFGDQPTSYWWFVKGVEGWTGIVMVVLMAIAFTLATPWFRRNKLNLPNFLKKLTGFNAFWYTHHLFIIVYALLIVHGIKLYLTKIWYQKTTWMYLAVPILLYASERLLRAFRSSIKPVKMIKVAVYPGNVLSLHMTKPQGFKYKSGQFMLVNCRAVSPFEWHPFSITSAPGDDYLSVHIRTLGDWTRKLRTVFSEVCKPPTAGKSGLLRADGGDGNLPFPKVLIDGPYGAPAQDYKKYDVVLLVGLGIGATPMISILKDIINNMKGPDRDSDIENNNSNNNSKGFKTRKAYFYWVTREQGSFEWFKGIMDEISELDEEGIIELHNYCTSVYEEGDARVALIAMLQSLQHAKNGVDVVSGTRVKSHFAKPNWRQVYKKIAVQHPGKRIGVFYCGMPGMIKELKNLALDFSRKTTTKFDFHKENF
UniProt Q8W1D5: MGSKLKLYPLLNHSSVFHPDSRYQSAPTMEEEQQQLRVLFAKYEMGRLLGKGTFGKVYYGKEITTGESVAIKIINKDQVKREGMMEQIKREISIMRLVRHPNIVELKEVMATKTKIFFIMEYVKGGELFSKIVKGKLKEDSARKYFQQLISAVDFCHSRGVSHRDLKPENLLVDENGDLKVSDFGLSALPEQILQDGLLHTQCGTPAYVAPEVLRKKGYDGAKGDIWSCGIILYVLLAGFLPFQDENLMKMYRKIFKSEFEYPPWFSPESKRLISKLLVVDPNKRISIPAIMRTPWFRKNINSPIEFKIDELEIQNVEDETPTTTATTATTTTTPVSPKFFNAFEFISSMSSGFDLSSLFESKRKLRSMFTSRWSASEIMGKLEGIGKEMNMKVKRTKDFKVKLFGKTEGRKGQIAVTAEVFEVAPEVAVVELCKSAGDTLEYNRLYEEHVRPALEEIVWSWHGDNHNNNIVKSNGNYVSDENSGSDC
UniProt O81445: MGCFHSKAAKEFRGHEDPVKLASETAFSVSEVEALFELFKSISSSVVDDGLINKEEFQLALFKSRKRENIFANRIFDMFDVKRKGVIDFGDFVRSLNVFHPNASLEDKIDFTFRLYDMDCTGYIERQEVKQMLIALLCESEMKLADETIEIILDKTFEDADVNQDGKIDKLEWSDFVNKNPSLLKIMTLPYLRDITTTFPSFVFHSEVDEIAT
CBL1 G^2/A-YFP^C (O81445, form named): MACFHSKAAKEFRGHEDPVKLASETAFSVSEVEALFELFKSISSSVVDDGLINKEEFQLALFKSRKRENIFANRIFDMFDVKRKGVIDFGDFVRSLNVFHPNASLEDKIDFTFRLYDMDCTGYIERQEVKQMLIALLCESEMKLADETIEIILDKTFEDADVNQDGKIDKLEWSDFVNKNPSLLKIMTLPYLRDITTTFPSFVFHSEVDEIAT
UniProt Q7FRS8: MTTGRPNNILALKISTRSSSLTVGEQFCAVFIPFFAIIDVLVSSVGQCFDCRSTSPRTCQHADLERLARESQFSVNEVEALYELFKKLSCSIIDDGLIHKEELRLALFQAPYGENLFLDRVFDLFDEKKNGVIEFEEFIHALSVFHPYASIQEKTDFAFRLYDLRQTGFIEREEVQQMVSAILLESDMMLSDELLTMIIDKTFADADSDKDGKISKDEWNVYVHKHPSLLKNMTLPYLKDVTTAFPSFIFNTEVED
UniProt Q9LTB8: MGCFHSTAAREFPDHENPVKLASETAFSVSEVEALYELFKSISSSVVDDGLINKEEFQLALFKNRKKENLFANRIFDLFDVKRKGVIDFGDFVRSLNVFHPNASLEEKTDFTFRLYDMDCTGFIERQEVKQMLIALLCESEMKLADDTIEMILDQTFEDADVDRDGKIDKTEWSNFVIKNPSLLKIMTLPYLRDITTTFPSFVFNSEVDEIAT
CBL9 G^2/A-YFP^C (Q9LTB8, form named): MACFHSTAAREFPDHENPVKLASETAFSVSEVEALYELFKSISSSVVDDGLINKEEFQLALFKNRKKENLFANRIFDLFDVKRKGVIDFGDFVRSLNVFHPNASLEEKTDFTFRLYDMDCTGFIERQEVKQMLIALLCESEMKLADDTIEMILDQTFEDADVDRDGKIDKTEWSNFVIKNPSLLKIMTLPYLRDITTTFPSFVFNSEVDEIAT
UniProt O81223: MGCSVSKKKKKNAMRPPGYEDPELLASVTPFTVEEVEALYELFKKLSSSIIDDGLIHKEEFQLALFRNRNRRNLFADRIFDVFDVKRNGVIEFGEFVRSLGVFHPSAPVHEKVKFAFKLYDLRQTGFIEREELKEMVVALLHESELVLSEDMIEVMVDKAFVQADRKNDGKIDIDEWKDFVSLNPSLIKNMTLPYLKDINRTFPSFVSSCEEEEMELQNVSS

No constants are given. Whether binding was seen depends on the method and setting. For some of these results: In cells and extracts the contact can be indirect. Some binding calls cover weakened binding; strength is not graded here. For some of these results: Where a sequence is shown, tags or fusion partners need not be part of it.

Assay [1] addresses CIPK6-YFP^N (Arabidopsis thaliana) (UniProt O65554). As to the kind of experiment: split reporter.
For assay [2], the target named is RbohD-YFP^C (Arabidopsis thaliana) (UniProt Q9FIJ0). As to the kind of experiment: split reporter.
For assay [3], the target named is RbohD-YFP (Arabidopsis thaliana) (UniProt Q9FIJ0). As to the kind of experiment: co-IP.
Assay [4] addresses CBL-interacting protein kinase 6 (CIPK6) fused to the GAL4 DNA-binding domain (Arabidopsis thaliana) (UniProt O65554). As to the kind of experiment: two-hybrid.
Assay [5] deals with RbohD-YFP^N (Arabidopsis thaliana) (UniProt Q9FIJ0). As to the kind of experiment: split reporter.
The target of assay [6] is T1, CIPK6-YFP (Arabidopsis thaliana) (UniProt O65554).
T1 sequence: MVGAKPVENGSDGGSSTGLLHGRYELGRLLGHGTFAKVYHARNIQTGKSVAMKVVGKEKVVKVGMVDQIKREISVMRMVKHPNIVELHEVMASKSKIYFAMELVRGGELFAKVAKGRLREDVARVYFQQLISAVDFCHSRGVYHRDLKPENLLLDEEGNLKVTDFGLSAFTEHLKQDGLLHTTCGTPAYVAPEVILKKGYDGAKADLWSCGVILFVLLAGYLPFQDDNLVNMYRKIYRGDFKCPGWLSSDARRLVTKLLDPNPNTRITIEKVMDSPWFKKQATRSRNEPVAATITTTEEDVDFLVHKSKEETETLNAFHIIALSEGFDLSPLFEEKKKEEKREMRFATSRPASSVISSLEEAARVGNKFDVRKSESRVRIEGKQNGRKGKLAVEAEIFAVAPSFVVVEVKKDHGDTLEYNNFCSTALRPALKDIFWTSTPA
As to the kind of experiment: co-IP.

Assay [7] has as its target CIPK25-YFP (UniProt Q8W1D5). As to the kind of experiment: co-IP.

“CBL1 G^2/A-YFP^C (from UniProt O81445 1-213)”: the binding result in assay [1] was “binds”.

“CIPK6 K^53/A-YFP^N (from UniProt O65554 1-441) (enzyme)”: the binding entry in assay [2] is given as “binds”.

“3xFlag-CBL10 (from UniProt Q7FRS8 1-256)”: in assay [3], the binding result is on record as “no binding”.

As to 3xFlag-CBL1 (from UniProt O81445 1-213), the binding result in assay [3] is “binds”.

In the case of “CBL3 fused to the GAL4 activation domain (from UniProt Q8LEM7 1-226)”, the binding entry in assay [4] is listed as “binds”.

As for “CBL9 G^2/A-YFP^C (from UniProt Q9LTB8 1-213)”, the binding result in assay [1] is “binds”.

On to CBL1-YFP^C (from UniProt O81445 1-213), for which the binding result in assay [1] and in assay [5] was “binds” throughout.

As for “10xcMyc-CBL9 (from UniProt Q9LTB8 1-213)”, the binding result in assay [6] is recorded as “binds”; in assay [7], “no binding”.

Consider “CBL4 fused to the GAL4 activation domain (from UniProt O81223 1-222)”, for which the binding result in assay [4] was “binds”.

Regarding “CBL2 fused to the GAL4 activation domain (from UniProt Q8LAS7 1-226)”, the binding result in assay [4] is reported as “binds”.

For the substance CBL9-YFP^C (from UniProt Q9LTB8 1-213), the binding result in assay [1] and in assay [5] was “binds” in each case.

For the substance “Calcineurin B like protein 1 (CBL1) fused to the GAL4 activation domain (from UniProt O81445 1-213)”, the binding result in assay [4] is “binds”.

On to “10xcMyc-CBL1 (from UniProt O81445 1-213)”, for which the values for the binding result in assay [6] and in assay [7] were “binds” and “no binding”, respectively.

As to “10xcMyc-CIPK25 (from UniProt Q8W1D5 1-488) (enzyme)”, the binding result in assay [3] was “no binding”.

On to “CBL9 fused to the GAL4 activation domain (from UniProt Q9LTB8 1-213)”, for which the binding entry in assay [4] is “binds”.
